PubChem BioAssay AID743454 | Peter MacCallum Cancer Centre | 2014
Test: 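Knock-downs lowering viability or raising caspase 3/7 activity in vorinostat-treated resistant cells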 (primary screen). Cell system: human HCT116-VR colon cancer cells, selected for vorinostat resistance. Reagent: siRNA pool against human genes, 40 nM siRNA pool. Time to read-out: vorinostat for 24 h, read-out about 72 h after transfection. Conditions: vorinostat at 2.5 µM final. Measurement: 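Cell viability by CellTiter-Fluor and caspase 3/7 activity by luminescence, each scaled to mock wells per plate, duplicates averaged, then robust z-scored over all plates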. Reading the numbers: viability robust z-score: higher = more viable cells than screen typical; caspase robust z-score: higher = more caspase 3/7 activity than screen typical. Active means: 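Hits are knock-downs in viability class RV1/RV2 or caspase class CA1/CA2, excluding ones that killed cells in the no-drug cell-count arm; hits then retested with single siRNAs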.
In all, the deposit lists about 18,000 reagents; shown is a part drawn at random. Of all reagents, 450 (2.5%) got an active call. 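Single biological run; no consistent viability z cut-off exists, so the class columns, not z-scores, define the calls.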 Reagents against one gene are numbered here.

target	reagent no.	viability hit class	caspase hit class	viability robust z-score	caspase robust z-score	call
NRXN3 (neurexin 3)	1	no change	no change	1.17	-0.52	inactive
SERPINB4 (serpin family B member 4)	1	no change	no change	-0.35	-0.96	inactive
MIA2 (MIA SH3 domain ER export factor 2)	1	no change	no change	0.11	-1.38	inactive
MIA2 (MIA SH3 domain ER export factor 2)	2	no change	no change	1.04	-0.56	inactive
TACO1 (translational activator of cytochrome c oxidase I)	1	no change	no change	0.44	-1.02	inactive
GLIPR1L2 (GLIPR1 like 2)	1	no change	no change	-0.16	2.01	inactive
MBOAT1 (membrane bound glycerophospholipid O-acyltransferase 1)	1	no change	no change	0.17	1.41	inactive
CPNE1 (copine 1)	1	no change	no change	0.53	-0.92	inactive
KCNMB2	1	no change	no change	-0.44	-0.88	inactive
FAT4 (FAT atypical cadherin 4)	1	no change	no change	0.94	-0.63	inactive
MCF2L (MCF.2 cell line derived transforming sequence like)	1	no change	no change	-0.92	0.98	inactive
TRIM77 (tripartite motif containing 77)	1	no change	no change	0.6	0.19	inactive
TTR (transthyretin)	1	no change	no change	-0.6	-0.63	inactive
GZF1 (GDNF inducible zinc finger protein 1)	1	no change	no change	-0.55	3.88	inactive
WDR27 (WD repeat domain 27)	1	no change	no change	-0.04	1.22	inactive
IRF8 (interferon regulatory factor 8)	1	no change	no change	0.03	-0.82	inactive
RERG (RAS like estrogen regulated growth inhibitor)	1	no change	no change	0.38	-0.18	inactive
CLPSL2 (colipase like 2)	1	no change	no change	0.55	-0.11	inactive
ZNF239 (zinc finger protein 239)	1	no change	no change	0.22	0.11	inactive
EPS8L1 (EPS8 signaling adaptor L1)	1	no change	no change	-0.73	0.3	inactive
RPA4 (replication protein A4)	1	no change	no change	1.04	-0.82	inactive
PABIR3 (PABIR family member 3)	1	no change	no change	1.05	-0.28	inactive
POLR3C (RNA polymerase III subunit C)	1	no change	no change	1.35	0.04	inactive

2 of these entries, set out differently:
GLIPR1L2 (GLIPR1 like 2) — viability hit class = no change; caspase hit class = no change; viability robust z-score = -0.16; caspase robust z-score = 2.01; call = inactive
MBOAT1 (membrane bound glycerophospholipid O-acyltransferase 1) — viability hit class = no change; caspase hit class = no change; viability robust z-score = 0.17; caspase robust z-score = 1.41; call = inactive
